# PMC10234108
# Sequences of proteins named here, by UniProt entry; tags and fusion partners are left off. A change or cut given only in a name is not applied to a line headed by its entry.
# UniProt P60953: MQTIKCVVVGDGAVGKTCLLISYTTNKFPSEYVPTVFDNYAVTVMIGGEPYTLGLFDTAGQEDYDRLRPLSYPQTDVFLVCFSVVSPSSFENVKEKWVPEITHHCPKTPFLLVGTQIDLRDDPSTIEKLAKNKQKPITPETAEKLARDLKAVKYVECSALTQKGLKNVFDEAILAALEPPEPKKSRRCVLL
# UniProt P61586: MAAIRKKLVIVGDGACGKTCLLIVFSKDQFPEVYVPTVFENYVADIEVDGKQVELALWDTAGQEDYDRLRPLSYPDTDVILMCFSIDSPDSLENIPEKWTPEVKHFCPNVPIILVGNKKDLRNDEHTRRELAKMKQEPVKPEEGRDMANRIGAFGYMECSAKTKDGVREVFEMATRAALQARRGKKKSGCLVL
# UniProt P42768: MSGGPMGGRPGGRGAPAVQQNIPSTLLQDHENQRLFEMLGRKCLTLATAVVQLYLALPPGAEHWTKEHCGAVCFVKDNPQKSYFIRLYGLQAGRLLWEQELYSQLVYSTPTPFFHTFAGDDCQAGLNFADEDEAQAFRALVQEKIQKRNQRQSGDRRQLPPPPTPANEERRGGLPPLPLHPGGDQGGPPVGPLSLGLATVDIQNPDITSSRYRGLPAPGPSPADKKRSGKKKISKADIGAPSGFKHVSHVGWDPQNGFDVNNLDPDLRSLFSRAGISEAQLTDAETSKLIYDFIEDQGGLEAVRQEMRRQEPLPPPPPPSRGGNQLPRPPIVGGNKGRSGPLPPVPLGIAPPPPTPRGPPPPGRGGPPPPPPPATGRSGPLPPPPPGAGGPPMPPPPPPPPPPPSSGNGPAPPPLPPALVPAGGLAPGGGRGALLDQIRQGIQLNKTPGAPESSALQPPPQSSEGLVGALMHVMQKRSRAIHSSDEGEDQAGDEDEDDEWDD
# UniProt Q13153: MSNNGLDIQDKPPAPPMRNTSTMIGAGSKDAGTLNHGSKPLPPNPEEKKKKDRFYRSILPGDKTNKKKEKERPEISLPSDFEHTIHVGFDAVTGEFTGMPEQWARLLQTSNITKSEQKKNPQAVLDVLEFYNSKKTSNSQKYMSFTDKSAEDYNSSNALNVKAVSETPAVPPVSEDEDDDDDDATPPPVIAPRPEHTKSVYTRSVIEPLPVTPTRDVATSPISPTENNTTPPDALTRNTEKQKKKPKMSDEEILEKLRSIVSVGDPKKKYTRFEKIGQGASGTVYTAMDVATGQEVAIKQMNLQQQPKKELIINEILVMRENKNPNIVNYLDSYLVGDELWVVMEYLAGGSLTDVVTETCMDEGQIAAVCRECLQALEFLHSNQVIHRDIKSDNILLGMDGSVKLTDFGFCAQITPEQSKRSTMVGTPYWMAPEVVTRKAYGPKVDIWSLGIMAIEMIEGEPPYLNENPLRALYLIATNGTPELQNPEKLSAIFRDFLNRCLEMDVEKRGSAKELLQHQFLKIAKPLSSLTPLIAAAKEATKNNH
# UniProt Q07912: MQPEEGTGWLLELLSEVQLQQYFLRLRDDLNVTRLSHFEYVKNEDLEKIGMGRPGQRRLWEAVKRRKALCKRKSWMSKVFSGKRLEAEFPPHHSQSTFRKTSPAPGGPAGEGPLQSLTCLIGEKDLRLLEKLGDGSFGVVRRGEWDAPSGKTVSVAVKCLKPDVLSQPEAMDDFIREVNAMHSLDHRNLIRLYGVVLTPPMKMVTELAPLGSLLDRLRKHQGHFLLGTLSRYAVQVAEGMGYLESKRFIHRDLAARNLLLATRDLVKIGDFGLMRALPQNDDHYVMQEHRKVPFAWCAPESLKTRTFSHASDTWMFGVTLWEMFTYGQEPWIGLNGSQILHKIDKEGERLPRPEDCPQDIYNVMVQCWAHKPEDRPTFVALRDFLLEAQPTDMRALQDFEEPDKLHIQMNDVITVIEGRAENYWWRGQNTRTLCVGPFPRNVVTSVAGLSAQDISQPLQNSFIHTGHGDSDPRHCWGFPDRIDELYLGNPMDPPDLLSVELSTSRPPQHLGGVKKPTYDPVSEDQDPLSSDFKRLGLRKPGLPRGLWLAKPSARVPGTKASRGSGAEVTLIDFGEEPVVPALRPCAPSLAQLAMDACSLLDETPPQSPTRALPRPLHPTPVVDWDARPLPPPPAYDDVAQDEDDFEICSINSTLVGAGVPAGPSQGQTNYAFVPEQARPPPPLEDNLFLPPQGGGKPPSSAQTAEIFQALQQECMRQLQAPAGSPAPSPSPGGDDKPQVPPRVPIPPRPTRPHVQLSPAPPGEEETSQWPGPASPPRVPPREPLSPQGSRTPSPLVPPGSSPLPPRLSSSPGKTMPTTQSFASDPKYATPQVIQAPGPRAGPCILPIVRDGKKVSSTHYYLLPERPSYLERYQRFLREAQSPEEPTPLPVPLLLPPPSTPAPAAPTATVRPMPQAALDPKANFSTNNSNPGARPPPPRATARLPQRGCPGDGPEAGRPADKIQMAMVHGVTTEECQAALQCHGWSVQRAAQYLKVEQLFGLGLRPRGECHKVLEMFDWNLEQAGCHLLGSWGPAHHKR
# UniProt O00401: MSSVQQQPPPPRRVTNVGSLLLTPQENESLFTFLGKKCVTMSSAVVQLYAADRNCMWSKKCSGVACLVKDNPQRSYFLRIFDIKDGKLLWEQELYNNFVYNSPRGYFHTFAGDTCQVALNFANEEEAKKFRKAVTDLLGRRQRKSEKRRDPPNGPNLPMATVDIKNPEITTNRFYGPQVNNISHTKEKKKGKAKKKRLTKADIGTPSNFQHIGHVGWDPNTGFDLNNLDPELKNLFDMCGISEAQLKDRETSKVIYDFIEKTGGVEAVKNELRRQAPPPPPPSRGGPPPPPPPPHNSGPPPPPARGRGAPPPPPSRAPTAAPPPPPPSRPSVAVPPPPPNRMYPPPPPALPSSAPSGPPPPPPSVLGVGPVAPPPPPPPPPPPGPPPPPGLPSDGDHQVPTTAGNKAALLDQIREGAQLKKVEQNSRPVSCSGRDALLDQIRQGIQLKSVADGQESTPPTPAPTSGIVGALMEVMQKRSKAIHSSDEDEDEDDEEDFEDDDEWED
# UniProt O96013: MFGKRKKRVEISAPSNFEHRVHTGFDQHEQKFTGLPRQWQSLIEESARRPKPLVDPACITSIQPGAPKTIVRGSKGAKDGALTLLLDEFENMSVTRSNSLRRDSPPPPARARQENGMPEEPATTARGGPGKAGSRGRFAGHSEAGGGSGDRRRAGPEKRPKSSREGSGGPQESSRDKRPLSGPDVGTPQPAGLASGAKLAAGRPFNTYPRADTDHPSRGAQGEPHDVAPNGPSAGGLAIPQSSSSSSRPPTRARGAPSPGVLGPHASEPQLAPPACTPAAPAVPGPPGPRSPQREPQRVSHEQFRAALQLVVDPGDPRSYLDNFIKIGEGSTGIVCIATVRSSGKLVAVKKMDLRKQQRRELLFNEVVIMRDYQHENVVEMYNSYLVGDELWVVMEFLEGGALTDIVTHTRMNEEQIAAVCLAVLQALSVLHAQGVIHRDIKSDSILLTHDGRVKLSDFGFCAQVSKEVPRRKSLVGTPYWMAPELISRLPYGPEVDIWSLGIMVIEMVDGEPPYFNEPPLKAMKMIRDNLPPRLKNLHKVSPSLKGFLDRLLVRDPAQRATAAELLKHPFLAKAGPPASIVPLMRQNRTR
# These are yes or no findings as the source states them, for the method shown. For some assays here: Binding can be weak; no strength is given.
# Tests used:
# [1] = target: H2A–mTurquoise2–Cdc42(G12V)ΔCaaX (UniProt P60953); assay: nuclear enrichment with a GTPase tethered to the nucleus (spinning disk microscopy); HeLa cells co-expressing H2A–mTurquoise2–Rho GTPase (constitutively active, ΔCaaX) or H2A–mTurquoise2 as control and the fluorescently tagged candidate; ratio of nuclear to cytosolic intensity of the candidate
# [2] = target: TOMM20–mTurquoise2–Cdc42(G12V)ΔCaaX (UniProt P60953); assay: partition between a GTPase tethered to mitochondria and one tethered to the nucleus (spinning disk microscopy); HeLa cells co-expressing TOMM20–mTurquoise2–Cdc42(G12V)ΔCaaX, H2A–mTurquoise2–Rac1(G12V)ΔCaaX and the mScarlet-I tagged CRIB; direct competition in cells
# [3] = target: H2A–mTurquoise2–RhoA(G14V)ΔCaaX (UniProt P61586); assay: nuclear enrichment with a GTPase tethered to the nucleus (spinning disk microscopy); HeLa cells co-expressing H2A–mTurquoise2–Rho GTPase (constitutively active, ΔCaaX) or H2A–mTurquoise2 as control and the fluorescently tagged candidate; ratio of nuclear to cytosolic intensity of the candidate
binding [1],binding [2],binding [3],Molecule
binds,binds,–,mScarlet-I–WASp(CRIB) (from UniProt P42768 238-251) (domain or fragment)
binds,binds,–,mScarlet-I–Pak1(CRIB) (from UniProt Q13153 75-88) (domain or fragment)
–,–,no binding,dimericTomato–WASp(CRIB) (from UniProt P42768 238-251) (domain or fragment)
binds,binds,–,"ISQPLQNSFIHTG (domain or fragment, UniProt Q07912 454-466) [mScarlet-I–TNK2(CRIB)]"
binds,binds,–,"IGTPSNFQHIGHVG (domain or fragment, UniProt O00401 203-216) [mScarlet-I–N-WASP(CRIB)]"
binds,binds,–,"ISAPSNFEHRVHTG (domain or fragment, UniProt O96013 11-24) [mScarlet-I–Pak4(CRIB)]"
